Source: paper PMC9925821
No constants are given. Whether binding was seen depends on the method and setting. In cells and extracts the contact can be indirect. Some entries that bind do so weakly or less than the wild type. Sequences can lack the tags named with a protein.

Sequences of proteins named here, by UniProt entry; tags and fusion partners are left off.
UniProt Q8TCG2: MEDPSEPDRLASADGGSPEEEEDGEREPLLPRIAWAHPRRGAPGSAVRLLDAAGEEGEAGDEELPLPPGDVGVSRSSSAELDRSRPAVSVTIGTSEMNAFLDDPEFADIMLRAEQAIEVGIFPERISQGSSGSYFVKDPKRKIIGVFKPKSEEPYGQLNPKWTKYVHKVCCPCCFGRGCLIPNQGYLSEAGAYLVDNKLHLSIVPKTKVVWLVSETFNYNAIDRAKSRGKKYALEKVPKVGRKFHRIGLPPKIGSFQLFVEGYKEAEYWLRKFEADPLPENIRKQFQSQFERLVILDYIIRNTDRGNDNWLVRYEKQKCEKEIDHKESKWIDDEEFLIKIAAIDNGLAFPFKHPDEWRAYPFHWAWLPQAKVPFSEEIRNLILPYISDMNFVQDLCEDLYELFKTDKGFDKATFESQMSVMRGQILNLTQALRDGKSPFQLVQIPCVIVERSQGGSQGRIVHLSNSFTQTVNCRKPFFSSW
UniProt P62491: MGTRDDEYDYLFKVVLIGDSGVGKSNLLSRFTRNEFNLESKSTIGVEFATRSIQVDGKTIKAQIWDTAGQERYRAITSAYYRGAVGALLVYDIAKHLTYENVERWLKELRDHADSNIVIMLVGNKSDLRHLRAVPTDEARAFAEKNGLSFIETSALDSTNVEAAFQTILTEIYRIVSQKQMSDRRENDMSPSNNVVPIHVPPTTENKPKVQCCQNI

Target: T1, Flag-FKBP51 (True-ORF-Myc-DDK (Flag)-tagged human FKBP51-transcript variant 1) (human) (UniProt Q13451)
T1 sequence: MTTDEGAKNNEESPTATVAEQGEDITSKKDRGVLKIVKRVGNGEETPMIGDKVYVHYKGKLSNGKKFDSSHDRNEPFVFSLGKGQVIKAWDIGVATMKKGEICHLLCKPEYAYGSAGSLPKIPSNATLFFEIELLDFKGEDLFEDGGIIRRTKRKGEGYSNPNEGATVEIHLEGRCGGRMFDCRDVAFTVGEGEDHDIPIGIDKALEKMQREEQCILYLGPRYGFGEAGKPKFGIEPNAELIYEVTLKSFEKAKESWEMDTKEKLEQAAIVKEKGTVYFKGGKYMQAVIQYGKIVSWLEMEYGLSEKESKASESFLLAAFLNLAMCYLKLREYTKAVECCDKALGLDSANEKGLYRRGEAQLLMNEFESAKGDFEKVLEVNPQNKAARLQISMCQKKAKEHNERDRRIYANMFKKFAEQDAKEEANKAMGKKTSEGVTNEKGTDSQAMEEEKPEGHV
Assay: co-IP; A375 cells transfected with Flag-tagged FKBP51 forms (with or without HA-PHLPP, HA-K63-Ub, siPHLPP RNAs), immunoprecipitated with anti-Flag antibody, IgG or empty vector as control, immunoblot

PI4K2B (from UniProt Q8TCG2 1-481) was tested, and the binding was “binds”.
In the case of Rab11a (from UniProt P62491 1-216), the binding is reported as “binds”.
